Reference: PubChem BioAssay AID1259425 (University of Nebraska Medical Center, 2018)
The whole screen tested about 14,000 reagents; shown is a random part of them. Reagents against one gene are numbered here. Not given: the time to read-out.

- Purpose: 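Seek colon cancer weak points whose silencing resembles KSR1 loss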 (primary screen)
- System: HCT116 human colon cancer cells
- Reagent: siRNA pool against human genes, 50 nM siRNA
- Measured: 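mRNA of six signature genes measured together by branched-DNA assay after 50 nM siRNA pool, blank removed, divided by geometric mean of two housekeeping genes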
- Scale: BNIP3L mRNA: higher = more BNIP3L transcript after knockdown; NDRG1 mRNA: higher = more NDRG1 transcript after knockdown; BNIP3 mRNA: higher = more BNIP3 transcript after knockdown; ALDOC mRNA: higher = more ALDOC transcript after knockdown; ACSL5 mRNA: higher = more ACSL5 transcript after knockdown

The first 5 records, ahead of the listing:
Target gene	pool no.	BNIP3L mRNA, set 1	NDRG1 mRNA, set 1	BNIP3 mRNA, set 1	ALDOC mRNA, set 1	ACSL5 mRNA, set 1
IL1RAPL2 (GeneID 26280)	1	0.1	0.157	0.352	0.0285	0.16
SIPA1L2 (GeneID 57568)	1	0.12	0.0673	0.293	0.0171	0.199
PRKCQ (GeneID 5588)	1	0.0808	0.0747	0.256	0.0138	0.212
ELP4 (GeneID 26610)	1	0.0526	0.139	0.166	0.0269	0.126
SPANXB1 (GeneID 728695)	1	0.181	0.116	0.44	0.0472	0.0662

Main list, from the first entry:
Target gene	pool no.	BNIP3L mRNA, set 1	NDRG1 mRNA, set 1	BNIP3 mRNA, set 1	ALDOC mRNA, set 1	ACSL5 mRNA, set 1
IL1RAPL2 (GeneID 26280)	1	0.1	0.157	0.352	0.0285	0.16
SIPA1L2 (GeneID 57568)	1	0.12	0.0673	0.293	0.0171	0.199
PRKCQ (GeneID 5588)	1	0.0808	0.0747	0.256	0.0138	0.212
ELP4 (GeneID 26610)	1	0.0526	0.139	0.166	0.0269	0.126
SPANXB1 (GeneID 728695)	1	0.181	0.116	0.44	0.0472	0.0662
SPANXB1 (GeneID 728695)	2	0.162	0.1	0.444	0.0317	0.0543
PLVAP (GeneID 83483)	1	0.3	0.426	0.527	0.189	0.374
DHX8 (GeneID 1659)	1	0.0916	0.0663	0.341	0.0313	0.1
HRC (GeneID 3270)	1	0.116	0.27	0.412	0.0122	0.106
CNOT4 (GeneID 4850)	1	0.0671	0.101	0.274	0.026	0.0948
POPDC2 (GeneID 64091)	1	0.0808	0.155	0.387	0.0071	0.224
SCN7A (GeneID 6332)	1	0.0855	0.36	0.314	0.023	0.114
CTDNEP1 (GeneID 23399)	1	0.03	0.432	0.305	0.0557	0.332
EZR (GeneID 7430)	1	0.0933	0.12	0.253	0.00712	0.225
DYRK2 (GeneID 8445)	1	0.22	0.144	0.211	0.0107	0.124
RAB27B (GeneID 5874)	1	0.0658	0.0836	0.227	0.0172	0.0881
NEUROD6 (GeneID 63974)	1	0.0639	0.133	0.331	0.0229	0.266
PCDHA10 (GeneID 56139)	1	0.108	0.0582	0.421	0.0159	0.198
DOC2A (GeneID 8448)	1	0.166	0.444	0.278	0.0359	0.231
GPR143 (GeneID 4935)	1	0.222	0.214	0.367	0.0439	0.152
UBE2T (GeneID 29089)	1	0.0678	0.786	0.282	0.0141	0.201
MID1IP1 (GeneID 58526)	1	0.0659	0.251	0.299	0.0409	0.189
STN1 (GeneID 79991)	1	0.0893	0.214	0.285	0.0442	0.202
EMCN (GeneID 51705)	1	0.146	0.137	0.299	0.0656	0.101
PALM2AKAP2 (GeneID 445815)	1	0.0895	0.0823	0.161	0.00701	0.212
UQCRC1 (GeneID 7384)	1	0.0668	0.313	0.142	0.0291	0.211
PLA2G2F (GeneID 64600)	1	0.192	0.837	0.254	0.0409	0.722
SERHL2 (GeneID 253190)	1	0.0607	0.135	0.317	0.0458	0.133
C1orf115 (GeneID 79762)	1	0.067	0.104	0.171	0.023	0.115
DLEC1 (GeneID 9940)	1	0.133	0.104	0.294	0.0939	0.146
APBA2 (GeneID 321)	1	0.0494	0.157	0.188	0.0157	0.0879
NECAP1 (GeneID 25977)	1	0.199	0.194	0.466	0.0105	0.174
ATAD2B (GeneID 54454)	1	0.0557	0.0751	0.261	0.0175	0.0756
GPX3 (GeneID 2878)	1	0.159	0.203	0.227	0.032	0.223
PNRC2 (GeneID 55629)	1	0.0369	0.112	0.233	0.0117	0.11
TTC21B (GeneID 79809)	1	0.0784	0.247	0.364	0.0805	0.227
RNF213 (GeneID 57674)	1	1.08	5.16	3.12	1.12	0.0912
RNF213 (GeneID 57674)	2	0.0886	0.446	0.441	0.0177	0.307
DSN1 (GeneID 79980)	1	0.0938	0.152	0.238	0.0718	0.147
AGPAT5 (GeneID 55326)	1	0.211	0.866	0.242	0.022	0.631
PLIN3 (GeneID 10226)	1	0.128	0.208	0.402	0.0338	0.189
LAMTOR5 (GeneID 10542)	1	0.11	0.274	0.286	0.0571	0.131
GZMA (GeneID 3001)	1	0.0798	0.0817	0.181	0.0203	0.0913
SLC39A9 (GeneID 55334)	1	0.0655	0.289	0.237	0.0164	0.225
RPL7 (GeneID 6129)	1	0.266	0.383	0.49	0.0434	0.208
JMJD1C (GeneID 221037)	1	0.0634	0.106	0.198	0.0227	0.107
CAMK1D (GeneID 57118)	1	0.0888	0.423	0.716	0.015	0.558
GAD1 (GeneID 2571)	1	0.0877	0.139	0.304	0.0152	0.279
PPP2R2A (GeneID 5520)	1	0.137	0.294	0.198	0.0364	0.236
MS4A12 (GeneID 54860)	1	0.068	0.565	0.283	0.0263	0.249
